## Screening data, single-dose tests

Mtb glucose medium: 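Whole-cell growth test on Mycobacterium tuberculosis, read after 3 days in glucose-containing 7H9 medium; the read-out is not stated. Concentration: 500 µM. Direction is inferred from retests: higher values go with more growth inhibition. About 18,000 compounds were tested under these conditions; 7.9% (about 1,400) showed 50% or more at least once.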
Mtb cholesterol medium: 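Phenotypic screen: M. tuberculosis growth, cholesterol and DPPC medium, 4 days; the read-out is not stated. Compounds at 500 µM. Direction is inferred from retests: higher values go with more growth inhibition. Size under these conditions: about 18,000 compounds, about 900 of them at 50% or above in at least one test.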

Results are given as percent effect. The controls that fix the scale are not given in the record; negative values are as filed. This is an unselected part of the compounds tested.

SMILES | Mtb glucose medium | Mtb cholesterol medium
CCc1nnc(CNC(=O)[C@@H](N)[C@@H](C)CC)s1 | -9.739% | -9.091%
CN(Cc1nc(N)nc(N(C)C)n1)CC1CCCO1 (centres undefined) | 16.94% | 10.24%
CC(CO)S(=O)(=O)Cc1nccn1Cc1ccccc1 (centres undefined) | 38.99% | 15.93%
CC(NC(=O)C(C)(C)C)C(=O)NCc1ccccc1F (centres undefined) | 3.57% | -7.257%
NC1=Nc2ccccc2Sc2ncccc21 | 48.39% | 47.99%
CC(C)N1C[C@@H](C)C(=O)C[C@@H]1C | 4.276% | 5.459%
CN1C[C@H]2CNC[C@@]2(C(=O)NCCCn2ccnn2)C1 | 5.042% | 7.9%
CN(CCC(C)(C)O)C(=O)c1ccc(N)nc1 | 7.627% | -1.016%
N#Cc1ccc(S(=O)(=O)N2CCCC(C(N)=O)C2)cc1 (centres undefined) | 24.35% | -1.521%
CN(C)C(=O)CCCNC1CCC2(CCNCC2)CC1 | 4.394% | -23.45%
NC1CCCN(c2cc(N3CCCC3)ncn2)C1 (centres undefined) | 29.59% | -1.92%
COc1cccc(C(C)NCC(=O)NC(C)C)c1 (centres undefined) | 25.2% | 21.18%
CNC(=O)C1CCCN1Cc1ncc(C(C)(C)C)o1 (centres undefined) | 41.36% | 21.4%
Nc1cc(=O)[nH]n1-c1ccc(C(F)(F)F)cn1 | 61.33% | 87.25%
Cc1ccc(C)c(NC(=O)CCN2CCOCC2)c1 | 14.98% | 22.2%
COc1cccc(-c2cc(N)n(C)n2)c1 | 17.83% | 18.11%
CN(CC(=O)NC(C)(C)C)C(=O)c1sccc1Cl | 14.44% | 11.13%
CC(C)OCCN1CCC(C(N)=O)CC1 | 13.6% | 4.63%
Nc1ncccc1CNC(=O)[C@H]1CCC[C@@H](O)C1 | 13.75% | 2.205%
CCC(NC(=O)Cc1cccc(O)c1)c1ccncc1 (centres undefined) | 14.2% | -14.09%
Cc1ccc(OCC(=O)NC2=NCCS2)cc1C | -9.132% | -3.902%
CN(C)C1CCCN(C(=O)c2n[nH]c(N)c2Cl)CC1 (centres undefined) | -1.017% | -1.863%
Cc1cc(=O)[nH]c(=O)n1-c1ccc(F)cc1 | 0.6293% | -4.838%
NC1CCN(CC(=O)N2CCCC2)CC1 | 0.6689% | 9.612%
Cc1cccc(C(=O)NC2CCCNC2)c1F (centres undefined) | 12.65% | 18.23%
CCN(CC(=O)N(C(C)CS(C)(=O)=O)C1CC1)C1CC1 (centres undefined) | -7.163% | -5.185%
CC1CC(=O)N(CCc2cccs2)C1=O (centres undefined) | 11.81% | 13.77%
CC1=NN(C(=O)Cn2cccn2)C(O)(C(F)(F)F)C1 (centres undefined) | 3.359% | 5.958%
CCc1nccn1C1CCCNC1 (centres undefined) | 0.05239% | -2.279%
COc1ccc(C(=O)NCCN2CCCC2)cc1 | 14.2% | 9.964%
CC(C)NC(=O)Nc1ccc(N(C)C)nc1 | 8.688% | 1.918%
CS(=O)(=O)NC1CCCN(c2ccncc2Cl)C1 (centres undefined) | -1.456% | -7.195%
COc1cc(CNC(=O)c2ccco2)cc(OC)c1 | 4.092% | 22.33%
Cc1noc(COC2CNC2)n1 | 1.5% | -1.561%
Cc1nnc(N2CCC(=O)CC2)s1 | 3.457% | 1.771%
CCN(C(=O)C(C)O)C1CCCCC1 (centres undefined) | 8.31% | -7.34%
CCOCCCC(=O)N(C)Cc1cnc(C)s1 | -0.9036% | -11.6%
Cc1cc(CS(=O)(=O)C(C)C(=O)NC2CC2)on1 (centres undefined) | 3.752% | -23.74%
COCCN(C(=O)Cc1cccc(C)c1)C(C)C(N)=O (centres undefined) | 6.055% | 4.316%
CNS(=O)(=O)CC(=O)N(C)CCc1ccccc1F | -8.404% | -28.16%
Cc1nc(C(C)(C)N)sc1C | 1.965% | -11.35%
Cc1c(C(=O)NCc2ccnc(N(C)C)c2)cnn1C | -3.816% | 2.441%
CCc1nnsc1C(=O)N(C)Cc1ccc(C#N)cc1 | 24.87% | 30.51%
CC(C)COCCN1CCS(=O)(=O)CC(C)C1 (centres undefined) | 7.632% | 5.585%
COC(=O)COc1ccc(S(=O)(=O)N2CCCC2)cc1 | 6.37% | 2.926%
Clc1ccsc1CNCc1cc[nH]n1 | 18.71% | 12.04%
NCC(=O)c1ccncc1 | -39.23% | -44.05%
OCCNC1CCCC1 | 66.63% | 13.56%
NCCCNC(=O)c1ccccc1 | 23.85% | 9.959%
COCCCN1CCC(CNc2ccncn2)C1 (centres undefined) | -9.496% | 4.121%
CC(C)(CO)NC(=O)c1cccc(OCC(F)F)n1 | 20.63% | -9.038%
O=C(CCn1ccnc1)N1CCCCC1CO (centres undefined) | -8.699% | -13.29%
CN1CCC(CCN)CC1 | -22.56% | -36.06%
CCOc1c(OC)cc(CN)cc1OC | 32.69% | 29.33%
COCCc1ccc2oc(N)nc2c1 | 6.643% | -2.786%
NC(=O)C1CCN(c2ccnc3cc(Br)ccc23)C1 (centres undefined) | 44.61% | 21.19%
CC(C)c1ccn(C)n1 | 13.43% | 15.15%
NC(=O)CN(Cc1ccc(Br)cc1)C(=O)c1ccco1 | 52.53% | 17.7%
O=C(c1ccc(Br)o1)N1CCNCC1 | 6.405% | 7.355%
CN(Cc1cc(=O)n2ccsc2n1)C1CCSCC1 | 16.18% | -4.613%
CO[C@@H]1C[C@@H](CO)N(C(=O)OC(C)(C)C)C1 | -0.8212% | 22.12%
CC(N)CN1CCN(c2ncccn2)CC1 (centres undefined) | -6.778% | -2.92%
O=C(CCc1ccc(Br)cc1F)NC1CCS(=O)(=O)C1 (centres undefined) | -3.462% | -17.45%
CCc1noc(COC2CNC2)n1 | 14.77% | 9.648%
CNc1cc(CN(C)Cc2ccccc2)ccn1 | 61.14% | 67.6%
Cc1ccc(S(=O)(=O)NC2CC2)cc1C(=O)N(C)C | -5.313% | -13.53%
O=C(C1CCCO1)N1CCN(c2cc(Br)ccn2)CC1 (centres undefined) | 5.763% | -21.25%
CN1CCOC(CNC(=O)CSCc2ccncc2)C1 (centres undefined) | -0.9291% | -0.8527%
Cc1cccc(C(=O)N2CCN(S(N)(=O)=O)CC2)c1 | 14.85% | -0.4343%
CN(C)C(=O)N1CCN(Cc2ccccc2C#N)CC1 | 31.24% | 12.88%
O=C(NCCn1ccnc1)NC1CCS(=O)(=O)C1 (centres undefined) | -7.826% | -11.99%
NC(CO)c1cccc2ccccc12 (centres undefined) | 17.39% | 30.19%

Source: ChEMBL document CHEMBL3988442, “University of Dundee, Small-Polar-MMV Screening Library” (2021).